Reference: PubChem BioAssay AID248 (DTP/NCI, 2004)
The list shows only some results of the screen, not a fair sample: it is rich in T/C values a quarter to a half above the control, in often repeated tests (any T/C) and in doses without a T/C. Other doses and runs of a compound stand elsewhere. T/C: endpoint of the treated group in % of that of the vehicle group. Some entries give survivors of the animals treated and no T/C: the source holds a T/C of zero for them, seemingly a mark for toxic or unscored doses. Some doses without a T/C left all or most animals alive at the check, yet need not have been tolerated: the source hardly ever lists a survival T/C far under the control, and the zero likely stands for such cases as well. Survivors were counted at the toxicity check, usually on the fifth day, unless a day is given; later deaths do not show. Schedule codes are those of the source, taken here to give the interval after Q, in days (D) or hours (H), and the number of doses after X. Some entries hold several experiments; the results are listed from low to high. Some structures stand for samples that the source files as different forms (salt, stereo form or complex); doses refer to the form tested. Where survival is the endpoint, the PubChem record calls one and a half times the control and up active, and a quarter to a half above the control has no call in these data; cut-offs in other NCI protocols can differ. Additions like (4×) count equal records among those shown. Some T/C values are followed by the survivors on the day toxicity was checked, most often the fifth; without a count, all were alive then.

System: L1210 leukemia ip in BDF1 mice, survival T/C
Assay: NCI In Vivo Anticancer Drug Screen. Data for tumor model L1210 Leukemia (intraperitoneal) in B6D2F1 (BDF1) mice
Conditions: T/C endpoint: mean survival time, higher T/C = longer survival
[1] = dose: 400.0 mg/kg/injection, schedule: Q01DX001 (ip), vehicle: saline
[2] = dose: 200.0 mg/kg/injection, schedule: Q04DX003 (ip), vehicle: saline with Tween-80
[3] = dose: 400.0 mg/kg/injection, schedule: Q04DX003 (ip), vehicle: saline with Tween-80

CCOC(=O)C(CC(C)C)NC(=O)C(Cc1ccc(N(CCCl)CCCl)cc1)NC(C)=O (configuration not stated)
T/C (dose: 64.0 mg/kg/injection, schedule: Q01DX009 (ip), vehicle: other): 138 % of control
T/C (dose: 75.0 mg/kg/injection, schedule: Q01DX001 (ip), vehicle: DMSO): 127 % of control
T/C (dose: 100.0 mg/kg/injection, schedule: Q01DX001 (ip), vehicle: DMSO): 126 % of control (2×)
survivor count (dose: 128.0 mg/kg/injection, schedule: Q01DX009 (ip), vehicle: other): 9 of 10
T/C (dose: 150.0 mg/kg/injection, schedule: Q01DX001 (ip), vehicle: DMSO): 132 % of control
T/C (dose: 150.0 mg/kg/injection, schedule: Q01DX001 (ip), vehicle: olive oil, sesame oil, peanut oil): 129 % of control
T/C (dose: 225.0 mg/kg/injection, schedule: Q01DX001 (ip), vehicle: DMSO): 141 % of control
T/C (dose: 225.0 mg/kg/injection, schedule: Q01DX001 (ip), vehicle: olive oil, sesame oil, peanut oil): 130 % of control
survivor count (dose: 256.0 mg/kg/injection, schedule: Q01DX009 (ip), vehicle: other): 1 of 10
T/C (dose: 500.0 mg/kg/injection, schedule: Q01DX001 (oral), vehicle: olive oil, sesame oil, peanut oil): 137 % of control
T/C (dose: 750.0 mg/kg/injection, schedule: Q01DX001 (oral), vehicle: olive oil, sesame oil, peanut oil): 143 % of control
T/C (dose: 1000.0 mg/kg/injection, schedule: Q01DX001 (oral), vehicle: olive oil, sesame oil, peanut oil): 129 % of control [9 of 10 alive]
survivor count (dose: 2000.0 mg/kg/injection, schedule: Q01DX001 (oral), vehicle: olive oil, sesame oil, peanut oil): 7 of 10

c1ccc(C2C(c3ccccc3)N2CCCN2CCOCC2)cc1 (configuration not stated)
survivor count (dose: 400.0 mg/kg/injection, schedule: Q04DX003 (ip), vehicle: Klucel (hydroxypropylcellulose) (HPC)): 3 of 6

CC(C)=CC[P+](c1ccccc1)(c1ccccc1)c1ccccc1
survivor count (dose: 100.0 mg/kg/injection, schedule: Q01DX001 (ip), vehicle: saline): 0 of 6 and 2 of 6
survivor count (dose: 100.0 mg/kg/injection, schedule: Q01DX009 (ip), vehicle: saline): 1 of 3
survivor count (dose: 200.0 mg/kg/injection, schedule: Q01DX001 (ip), vehicle: saline): 0 of 6
survivor count (dose: 200.0 mg/kg/injection, schedule: Q01DX009 (ip), vehicle: saline): 0 of 3
survivor count [1]: 0 of 6

Cc1cc2c(cn1)C(=O)C=CC2=O
survivor count (dose: 20.0 mg/kg/injection, schedule: Q01DX001 (ip), vehicle: carboxymethylcellulose (CMC)): 0 of 4
survivor count (dose: 40.0 mg/kg/injection, schedule: Q01DX001 (ip), vehicle: carboxymethylcellulose (CMC)): 0 of 4
survivor count (dose: 50.0 mg/kg/injection, schedule: Q01DX001 (ip), vehicle: carboxymethylcellulose (CMC)): 0 of 4
survivor count (dose: 80.0 mg/kg/injection, schedule: Q01DX001 (ip), vehicle: carboxymethylcellulose (CMC)): 0 of 4
survivor count (dose: 100.0 mg/kg/injection, schedule: Q01DX001 (ip), vehicle: carboxymethylcellulose (CMC)): 0 of 4
survivor count (dose: 200.0 mg/kg/injection, schedule: Q01DX001 (ip), vehicle: carboxymethylcellulose (CMC)): 0 of 4
survivor count (dose: 400.0 mg/kg/injection, schedule: Q01DX001 (ip), vehicle: carboxymethylcellulose (CMC)): 0 of 4

Cc1nc(-c2ccc(N=Cc3ccc(N(CCOS(C)(=O)=O)CCOS(C)(=O)=O)cc3C)cc2)cs1
T/C (dose: 100.0 mg/kg/injection, schedule: Q01DX001 (ip), vehicle: Klucel (hydroxypropylcellulose) (HPC)): 132 % of control
survivor count (dose: 200.0 mg/kg/injection, schedule: Q01DX001 (ip), vehicle: Klucel (hydroxypropylcellulose) (HPC)): 3 of 6
survivor count (dose: 400.0 mg/kg/injection, schedule: Q01DX001 (ip), vehicle: Klucel (hydroxypropylcellulose) (HPC)): 0 of 6

CN(C)C(=S)[S][Sn]([c]1ccccc1)([c]1ccccc1)[c]1ccccc1
survivor count (dose: 20.0 mg/kg/injection, schedule: Q01DX001 (ip), vehicle: steroid suspending solution): 6 of 6
survivor count (dose: 20.0 mg/kg/injection, schedule: Q04DX003 (ip), vehicle: saline with Tween-80): 4 of 6
survivor count (dose: 40.0 mg/kg/injection, schedule: Q04DX003 (ip), vehicle: Klucel (hydroxypropylcellulose) (HPC)): 2 of 6
survivor count (dose: 40.0 mg/kg/injection, schedule: Q04DX003 (ip), vehicle: saline with Tween-80): 3 of 6
survivor count (dose: 80.0 mg/kg/injection, schedule: Q01DX001 (ip), vehicle: steroid suspending solution): 4 of 6
survivor count (dose: 80.0 mg/kg/injection, schedule: Q04DX003 (ip), vehicle: saline with Tween-80): 0 of 6
survivor count (dose: 100.0 mg/kg/injection, schedule: Q01DX001 (ip), vehicle: steroid suspending solution): 3 of 6
survivor count (dose: 200.0 mg/kg/injection, schedule: Q01DX001 (ip), vehicle: steroid suspending solution): 0 of 6
survivor count (dose: 400.0 mg/kg/injection, schedule: Q01DX001 (ip), vehicle: steroid suspending solution): 0 of 6

CC(=O)N(C)c1ccc(NC(=O)CCl)cc1
survivor count (dose: 400.0 mg/kg/injection, schedule: Q01DX009 (ip), vehicle: Klucel (hydroxypropylcellulose) (HPC)): 0 of 6

Cc1ccc(P(=O)(O)O)c([N+](=O)[O-])c1
survivor count [1]: 2 of 6

O=C1C=C2C=CC3CC2(O1)C1CCCCN31 (configuration not stated)
survivor count (dose: 40.0 mg/kg/injection, schedule: Q01DX001 (ip), vehicle: saline): 2 of 4
survivor count [1]: 1 of 4 and 2 of 4

O=C(O)/C=C/C(=O)Nc1cccc2c1C(=O)c1ccccc1-2
survivor count [2]: 6 of 6
survivor count [3]: 0 of 6

C[P+](c1ccc(Cl)cc1)(c1ccc(Cl)cc1)c1ccc(Cl)cc1
survivor count (dose: 100.0 mg/kg/injection, schedule: Q04DX003 (ip), vehicle: saline): 1 of 6
survivor count (dose: 200.0 mg/kg/injection, schedule: Q04DX003 (ip), vehicle: saline): 0 of 6
survivor count (dose: 400.0 mg/kg/injection, schedule: Q04DX003 (ip), vehicle: saline): 0 of 6

CCC[CH2][Pb]([CH2]CCC)([CH2]CCC)[O]C(C)=O
survivor count (dose: 50.0 mg/kg/injection, schedule: Q01DX001 (ip), vehicle: saline): 2 of 4
survivor count (dose: 100.0 mg/kg/injection, schedule: Q04DX003 (ip), vehicle: saline with Tween-80): 2 of 3
survivor count [2]: 0 of 3
survivor count [1]: 1 of 4
survivor count [3]: 0 of 3

O=CNc1ccccc1.[Hg]
survivor count (dose: 12.5 mg/kg/injection, schedule: Q04DX003 (ip), vehicle: saline with Tween-80): 1 of 6
survivor count (dose: 25.0 mg/kg/injection, schedule: Q04DX003 (ip), vehicle: saline with Tween-80): 0 of 6
survivor count (dose: 100.0 mg/kg/injection, schedule: Q04DX002 (ip), vehicle: saline with Tween-80): 0 of 3
survivor count (dose: 200.0 mg/kg/injection, schedule: Q04DX002 (ip), vehicle: saline with Tween-80): 0 of 3
survivor count (dose: 400.0 mg/kg/injection, schedule: Q04DX002 (ip), vehicle: saline with Tween-80): 0 of 3
